From publication PMC6181919 come the findings set out here.

By UniProt entry, the sequences of proteins in these tests, tags left out. Residues count along the entry.
UniProt P02452, residues 1219-1464: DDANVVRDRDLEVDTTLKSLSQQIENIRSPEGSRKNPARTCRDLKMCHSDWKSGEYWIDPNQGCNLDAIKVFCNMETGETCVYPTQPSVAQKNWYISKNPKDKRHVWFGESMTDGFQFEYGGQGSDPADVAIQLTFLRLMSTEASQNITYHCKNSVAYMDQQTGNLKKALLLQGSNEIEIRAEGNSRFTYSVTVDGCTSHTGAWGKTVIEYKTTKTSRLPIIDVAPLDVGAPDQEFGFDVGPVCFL

For the assay, the target named is wild-type, HA-tagged C-Proα1(I) (C-propeptide domain of human Colα1(I)) (human) (UniProt P02452). Description: condition: only reducing SDS-PAGE (100 mM dithiothreitol); reducing SDS-PAGE immunoblot; conditioned media of transfected HEK293 cells, treated with 100 mM dithiothreitol, boiled in SDS, 12% gel.

No constants are given. Whether binding was seen depends on the method and setting.

For “wild-type, HA-tagged C-Proα1(I) (C-propeptide domain of human Colα1(I)) (from UniProt P02452 1219-1464) (domain or fragment)”, the binding entry is on record as “no binding”.
